Results deposited as PubChem BioAssay AID1159584 (Peter MacCallum Cancer Centre, 2016)

Purpose: 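Genes that CDH1-null MCF10A cells selectively depend on to survive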 (primary screen)
Cells: human MCF10A breast epithelial cells, parental and CDH1-null
Knock-down reagent: siRNA against human genes
Read-out: 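ATP luminescence (CellTiter-Glo) viability per line relative to mean mock wells over all plates, and the ratio of CDH1-null to parental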
Direction: CDH1-null / parental viability ratio: higher = CDH1-null cells survive relatively better than parental
The whole screen tested about 18,000 reagents; shown is an unselected part. Not all columns of the deposit are shown. Not stated in the record: the amount of reagent, the time to read-out.

What did the screen give for DBN1?
CDH1-null / parental viability ratio: 1.03

Which result is listed for SHLD1?
CDH1-null / parental viability ratio: 0.94

For ARMC7, what was measured?
CDH1-null / parental viability ratio: 0.88

What is on record for EPHB3?
CDH1-null / parental viability ratio: 0.75

With MRPL42, how do the results read?
CDH1-null / parental viability ratio: 1.06

What did the screen give for PCDHB6?
CDH1-null / parental viability ratio: 1.12

How did the screen score WDR46?
CDH1-null / parental viability ratio: 1.03

With MTRF1, what was measured?
CDH1-null / parental viability ratio: 0.93

How did the screen score TRMT1L?
CDH1-null / parental viability ratio: 1.09

With MINDY2, what was measured?
CDH1-null / parental viability ratio: 0.99

How did the screen score CABP5?
CDH1-null / parental viability ratio: 0.85

With GJA10, how do the results read?
CDH1-null / parental viability ratio: 0.97

With RBM4, how do the results read?
CDH1-null / parental viability ratio: 0.8

With POM121L2, what does the deposit list?
CDH1-null / parental viability ratio: 1

What is on record for AKR1B1?
CDH1-null / parental viability ratio: 0.79

What did the screen give for RPL27A?
CDH1-null / parental viability ratio: 1.72

For GABRP, how do the results read?
CDH1-null / parental viability ratio: 1.19

For RUNX3, what does the deposit list?
CDH1-null / parental viability ratio: 1.22

What did the screen give for UCHL1?
CDH1-null / parental viability ratio: 1.2

What did the screen give for CEACAM7?
CDH1-null / parental viability ratio: 0.87

How did the screen score ZNF471?
CDH1-null / parental viability ratio: 1.12

Which result is listed for PIGV?
CDH1-null / parental viability ratio: 1.07

What is on record for TP63?
CDH1-null / parental viability ratio: 1.11

With ELOVL3, how do the results read?
CDH1-null / parental viability ratio: 1.06
